Experimental findings from PMC5521874 are described below.

Assay [1] addresses T1, YFP-claudin-10b WT / CFP-claudin-10b WT (human) (UniProt P78369).
T1 sequence: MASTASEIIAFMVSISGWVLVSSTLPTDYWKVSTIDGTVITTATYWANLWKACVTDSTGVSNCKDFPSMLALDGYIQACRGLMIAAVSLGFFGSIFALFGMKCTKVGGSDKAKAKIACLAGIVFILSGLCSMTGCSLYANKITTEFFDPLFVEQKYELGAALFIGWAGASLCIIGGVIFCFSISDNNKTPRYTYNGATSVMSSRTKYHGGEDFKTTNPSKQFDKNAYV
Put plainly: FRET or BRET; cis-interaction; HEK293 cells co-transfected with CFP- and YFP-claudin-10b plasmids; acceptor bleaching at cell-cell contacts; FRET efficiency plotted against YFP/CFP ratio.

The target of assay [2] is T1, YFP-claudin-10b WT / CFP-claudin-10b WT (human). Put plainly: cellular contact enrichment assay (live cell imaging); trans-interaction; transiently transfected HEK293 cells (no TJs); enrichment factor of fluorescence at contacts between two claudin-expressing cells; HBSS pH 7.4.
The target is the same in assay [3]. In words: FRET or BRET; cis-interaction; MDCK-C7 cells (with endogenous claudins and TJs) expressing CFP- and YFP-tagged claudin-10b; FRET efficiency plotted against YFP/CFP ratio.
The target is the same in assay [4]. Put plainly: cellular contact enrichment assay (live cell imaging); trans-interaction; stable HEK293 lines, co-cultures of cells expressing either YFP- or CFP-fusion proteins; enrichment of co-localized YFP and CFP at mixed cell contacts (enrichment factor x length).
Assay [5] has as its target claudin-10b-wt-AcGFP (human) (UniProt P78369). In words: cellular contact enrichment assay (live cell imaging); trans-interaction; transiently transfected HEK293 cells (no TJs); enrichment factor of fluorescence at contacts between two claudin-expressing cells; HBSS pH 7.4.

Results are given in words; binding and its absence hold for the method and conditions named. For part of these data: In cells and extracts the contact can be indirect. Some binding calls cover weakened binding; strength is not graded here. Sequences can lack the tags named with a protein.

B1: YFP-claudin-10b WT / CFP-claudin-10b WT (protein, UniProt P78369-1 1-228)
chain: MASTASEIIAFMVSISGWVLVSSTLPTDYWKVSTIDGTVITTATYWANLWKACVTDSTGVSNCKDFPSMLALDGYIQACRGLMIAAVSLGFFGSIFALFGMKCTKVGGSDKAKAKIACLAGIVFILSGLCSMTGCSLYANKITTEFFDPLFVEQKYELGAALFIGWAGASLCIIGGVIFCFSISDNNKTPRYTYNGATSVMSSRTKYHGGEDFKTTNPSKQFDKNAYV
As to B1, the binding result in assay [1], in assay [2], in assay [3] and in assay [4] was “binds” in each case.

B2: YFP-claudin-10b N48K / CFP-claudin-10b N48K (protein, UniProt P78369-1 1-228)
chain: MASTASEIIAFMVSISGWVLVSSTLPTDYWKVSTIDGTVITTATYWAKLWKACVTDSTGVSNCKDFPSMLALDGYIQACRGLMIAAVSLGFFGSIFALFGMKCTKVGGSDKAKAKIACLAGIVFILSGLCSMTGCSLYANKITTEFFDPLFVEQKYELGAALFIGWAGASLCIIGGVIFCFSISDNNKTPRYTYNGATSVMSSRTKYHGGEDFKTTNPSKQFDKNAYV
B2: in assay [1], the binding result is given as “binds”.

B3: claudin-10b-wt-AcGFP (protein, UniProt P78369-1 1-228)
chain: MASTASEIIAFMVSISGWVLVSSTLPTDYWKVSTIDGTVITTATYWANLWKACVTDSTGVSNCKDFPSMLALDGYIQACRGLMIAAVSLGFFGSIFALFGMKCTKVGGSDKAKAKIACLAGIVFILSGLCSMTGCSLYANKITTEFFDPLFVEQKYELGAALFIGWAGASLCIIGGVIFCFSISDNNKTPRYTYNGATSVMSSRTKYHGGEDFKTTNPSKQFDKNAYV
Regarding B3, the binding entry in assay [5] is on record as “binds”.
